The values that follow come from the supplement of paper PMC10849652.

By UniProt entry, the sequences of proteins in these tests, tags left out. Where a name states a change or a piece, a line headed by the entry shows the natural chain unless it says otherwise.
UniProt Q9UIM3: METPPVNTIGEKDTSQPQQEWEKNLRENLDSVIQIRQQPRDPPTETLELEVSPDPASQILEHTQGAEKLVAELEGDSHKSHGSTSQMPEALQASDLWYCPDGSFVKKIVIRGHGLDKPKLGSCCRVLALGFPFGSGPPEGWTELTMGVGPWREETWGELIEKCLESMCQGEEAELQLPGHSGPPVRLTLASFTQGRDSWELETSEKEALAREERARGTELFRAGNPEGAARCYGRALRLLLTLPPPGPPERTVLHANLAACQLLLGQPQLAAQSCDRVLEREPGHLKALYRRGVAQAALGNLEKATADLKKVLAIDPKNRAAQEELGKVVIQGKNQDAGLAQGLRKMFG
UniProt P31995: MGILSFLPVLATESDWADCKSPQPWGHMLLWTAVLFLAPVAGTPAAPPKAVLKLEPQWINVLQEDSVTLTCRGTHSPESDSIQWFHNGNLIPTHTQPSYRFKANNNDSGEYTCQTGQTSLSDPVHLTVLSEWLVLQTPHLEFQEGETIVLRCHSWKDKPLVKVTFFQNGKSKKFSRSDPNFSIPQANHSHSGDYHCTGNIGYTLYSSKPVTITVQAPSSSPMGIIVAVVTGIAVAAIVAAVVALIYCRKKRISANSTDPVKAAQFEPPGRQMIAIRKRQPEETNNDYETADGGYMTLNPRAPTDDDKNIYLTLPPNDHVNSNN
UniProt Q8NB91: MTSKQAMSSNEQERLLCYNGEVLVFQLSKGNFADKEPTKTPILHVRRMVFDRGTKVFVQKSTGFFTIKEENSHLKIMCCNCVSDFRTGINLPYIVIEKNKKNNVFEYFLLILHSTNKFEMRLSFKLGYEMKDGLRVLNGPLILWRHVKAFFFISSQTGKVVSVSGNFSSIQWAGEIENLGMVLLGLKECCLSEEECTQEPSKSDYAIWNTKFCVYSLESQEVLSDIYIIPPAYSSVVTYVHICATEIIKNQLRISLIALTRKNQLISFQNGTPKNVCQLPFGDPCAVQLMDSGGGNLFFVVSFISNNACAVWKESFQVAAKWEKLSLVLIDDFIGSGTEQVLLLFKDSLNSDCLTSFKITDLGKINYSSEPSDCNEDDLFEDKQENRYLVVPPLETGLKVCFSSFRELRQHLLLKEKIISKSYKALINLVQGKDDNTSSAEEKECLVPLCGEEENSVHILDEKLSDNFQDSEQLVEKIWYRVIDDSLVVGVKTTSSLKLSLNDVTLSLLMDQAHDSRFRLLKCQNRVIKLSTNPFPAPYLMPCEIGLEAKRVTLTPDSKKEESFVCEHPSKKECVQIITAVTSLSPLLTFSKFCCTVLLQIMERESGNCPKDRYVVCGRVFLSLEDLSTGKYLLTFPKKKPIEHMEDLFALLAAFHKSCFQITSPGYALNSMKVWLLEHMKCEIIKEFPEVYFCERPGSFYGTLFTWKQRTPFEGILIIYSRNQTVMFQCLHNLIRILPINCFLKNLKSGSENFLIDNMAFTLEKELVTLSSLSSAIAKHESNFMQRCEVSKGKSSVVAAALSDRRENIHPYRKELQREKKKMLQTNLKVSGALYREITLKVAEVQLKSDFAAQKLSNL
UniProt Q6UN15: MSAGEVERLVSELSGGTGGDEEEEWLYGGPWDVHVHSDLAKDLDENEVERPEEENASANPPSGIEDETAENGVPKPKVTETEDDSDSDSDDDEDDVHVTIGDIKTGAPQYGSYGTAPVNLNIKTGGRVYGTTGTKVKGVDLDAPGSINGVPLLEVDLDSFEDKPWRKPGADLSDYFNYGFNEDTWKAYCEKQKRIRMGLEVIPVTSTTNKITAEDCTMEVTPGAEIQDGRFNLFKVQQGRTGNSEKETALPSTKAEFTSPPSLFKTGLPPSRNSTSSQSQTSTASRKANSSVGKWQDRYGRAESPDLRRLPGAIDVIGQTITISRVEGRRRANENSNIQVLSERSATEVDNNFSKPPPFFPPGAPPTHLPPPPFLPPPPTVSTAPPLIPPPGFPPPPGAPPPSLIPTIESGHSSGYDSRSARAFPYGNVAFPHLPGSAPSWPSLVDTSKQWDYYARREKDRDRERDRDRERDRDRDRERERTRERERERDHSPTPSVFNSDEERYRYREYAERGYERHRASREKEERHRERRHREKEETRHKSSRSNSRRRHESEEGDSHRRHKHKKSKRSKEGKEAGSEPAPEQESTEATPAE
UniProt Q9NUQ9: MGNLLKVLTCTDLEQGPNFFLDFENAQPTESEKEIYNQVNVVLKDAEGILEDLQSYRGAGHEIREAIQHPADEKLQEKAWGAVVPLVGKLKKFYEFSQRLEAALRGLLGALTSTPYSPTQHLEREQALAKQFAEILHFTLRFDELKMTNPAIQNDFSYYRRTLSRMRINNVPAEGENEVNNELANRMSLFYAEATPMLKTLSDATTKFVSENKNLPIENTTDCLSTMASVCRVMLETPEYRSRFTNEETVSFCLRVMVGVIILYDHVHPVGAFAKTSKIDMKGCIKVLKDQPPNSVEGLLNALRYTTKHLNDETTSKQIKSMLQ
UniProt Q8TB52: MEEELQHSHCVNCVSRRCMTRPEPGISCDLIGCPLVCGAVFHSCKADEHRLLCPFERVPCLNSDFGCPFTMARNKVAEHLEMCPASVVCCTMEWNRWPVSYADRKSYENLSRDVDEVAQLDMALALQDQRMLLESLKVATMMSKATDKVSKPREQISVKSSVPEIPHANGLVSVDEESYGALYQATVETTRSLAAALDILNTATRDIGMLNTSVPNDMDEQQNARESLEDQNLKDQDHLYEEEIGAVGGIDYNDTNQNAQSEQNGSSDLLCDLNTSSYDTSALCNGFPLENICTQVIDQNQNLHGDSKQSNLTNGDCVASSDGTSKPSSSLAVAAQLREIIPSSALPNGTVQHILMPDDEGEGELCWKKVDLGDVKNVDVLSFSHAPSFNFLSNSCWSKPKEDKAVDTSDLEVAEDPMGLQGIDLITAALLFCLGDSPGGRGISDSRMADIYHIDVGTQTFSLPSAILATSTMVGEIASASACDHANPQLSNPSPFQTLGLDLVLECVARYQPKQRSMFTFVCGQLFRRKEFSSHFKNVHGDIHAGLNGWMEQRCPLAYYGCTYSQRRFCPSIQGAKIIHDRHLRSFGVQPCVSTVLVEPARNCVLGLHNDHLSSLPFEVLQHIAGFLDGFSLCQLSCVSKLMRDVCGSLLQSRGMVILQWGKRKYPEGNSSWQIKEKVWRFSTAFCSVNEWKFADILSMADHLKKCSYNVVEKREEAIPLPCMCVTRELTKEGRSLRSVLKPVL
UniProt P26885: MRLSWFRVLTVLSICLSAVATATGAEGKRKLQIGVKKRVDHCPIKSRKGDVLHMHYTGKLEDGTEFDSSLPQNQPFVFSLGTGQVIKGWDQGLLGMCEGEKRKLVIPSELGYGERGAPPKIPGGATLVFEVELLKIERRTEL
UniProt Q8WVX9: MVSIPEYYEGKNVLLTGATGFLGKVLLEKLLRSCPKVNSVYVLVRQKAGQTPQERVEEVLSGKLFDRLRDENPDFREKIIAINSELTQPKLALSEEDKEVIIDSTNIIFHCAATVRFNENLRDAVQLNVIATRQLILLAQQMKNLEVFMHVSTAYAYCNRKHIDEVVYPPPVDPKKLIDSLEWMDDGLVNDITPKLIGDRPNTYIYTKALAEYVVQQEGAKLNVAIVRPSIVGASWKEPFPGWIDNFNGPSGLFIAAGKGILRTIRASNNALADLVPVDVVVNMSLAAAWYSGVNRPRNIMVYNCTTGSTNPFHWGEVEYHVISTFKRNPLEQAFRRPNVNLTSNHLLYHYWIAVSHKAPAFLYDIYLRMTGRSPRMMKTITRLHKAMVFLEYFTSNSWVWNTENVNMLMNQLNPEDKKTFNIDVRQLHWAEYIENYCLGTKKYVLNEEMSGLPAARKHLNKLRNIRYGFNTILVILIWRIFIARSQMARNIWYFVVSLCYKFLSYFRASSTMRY
UniProt P07954: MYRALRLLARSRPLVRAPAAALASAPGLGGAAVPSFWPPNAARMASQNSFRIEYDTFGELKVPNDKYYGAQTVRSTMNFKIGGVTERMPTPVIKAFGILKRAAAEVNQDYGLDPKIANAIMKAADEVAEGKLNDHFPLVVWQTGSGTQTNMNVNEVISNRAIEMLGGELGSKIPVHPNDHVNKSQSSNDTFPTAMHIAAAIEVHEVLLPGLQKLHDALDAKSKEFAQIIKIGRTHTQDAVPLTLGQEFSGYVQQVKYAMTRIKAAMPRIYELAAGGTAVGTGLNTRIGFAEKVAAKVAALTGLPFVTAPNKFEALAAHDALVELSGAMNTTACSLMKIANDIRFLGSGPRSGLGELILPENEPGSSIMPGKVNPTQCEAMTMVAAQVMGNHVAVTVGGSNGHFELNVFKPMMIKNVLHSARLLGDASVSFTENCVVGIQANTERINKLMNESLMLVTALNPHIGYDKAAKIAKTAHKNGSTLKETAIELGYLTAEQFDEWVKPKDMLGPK
UniProt Q13045: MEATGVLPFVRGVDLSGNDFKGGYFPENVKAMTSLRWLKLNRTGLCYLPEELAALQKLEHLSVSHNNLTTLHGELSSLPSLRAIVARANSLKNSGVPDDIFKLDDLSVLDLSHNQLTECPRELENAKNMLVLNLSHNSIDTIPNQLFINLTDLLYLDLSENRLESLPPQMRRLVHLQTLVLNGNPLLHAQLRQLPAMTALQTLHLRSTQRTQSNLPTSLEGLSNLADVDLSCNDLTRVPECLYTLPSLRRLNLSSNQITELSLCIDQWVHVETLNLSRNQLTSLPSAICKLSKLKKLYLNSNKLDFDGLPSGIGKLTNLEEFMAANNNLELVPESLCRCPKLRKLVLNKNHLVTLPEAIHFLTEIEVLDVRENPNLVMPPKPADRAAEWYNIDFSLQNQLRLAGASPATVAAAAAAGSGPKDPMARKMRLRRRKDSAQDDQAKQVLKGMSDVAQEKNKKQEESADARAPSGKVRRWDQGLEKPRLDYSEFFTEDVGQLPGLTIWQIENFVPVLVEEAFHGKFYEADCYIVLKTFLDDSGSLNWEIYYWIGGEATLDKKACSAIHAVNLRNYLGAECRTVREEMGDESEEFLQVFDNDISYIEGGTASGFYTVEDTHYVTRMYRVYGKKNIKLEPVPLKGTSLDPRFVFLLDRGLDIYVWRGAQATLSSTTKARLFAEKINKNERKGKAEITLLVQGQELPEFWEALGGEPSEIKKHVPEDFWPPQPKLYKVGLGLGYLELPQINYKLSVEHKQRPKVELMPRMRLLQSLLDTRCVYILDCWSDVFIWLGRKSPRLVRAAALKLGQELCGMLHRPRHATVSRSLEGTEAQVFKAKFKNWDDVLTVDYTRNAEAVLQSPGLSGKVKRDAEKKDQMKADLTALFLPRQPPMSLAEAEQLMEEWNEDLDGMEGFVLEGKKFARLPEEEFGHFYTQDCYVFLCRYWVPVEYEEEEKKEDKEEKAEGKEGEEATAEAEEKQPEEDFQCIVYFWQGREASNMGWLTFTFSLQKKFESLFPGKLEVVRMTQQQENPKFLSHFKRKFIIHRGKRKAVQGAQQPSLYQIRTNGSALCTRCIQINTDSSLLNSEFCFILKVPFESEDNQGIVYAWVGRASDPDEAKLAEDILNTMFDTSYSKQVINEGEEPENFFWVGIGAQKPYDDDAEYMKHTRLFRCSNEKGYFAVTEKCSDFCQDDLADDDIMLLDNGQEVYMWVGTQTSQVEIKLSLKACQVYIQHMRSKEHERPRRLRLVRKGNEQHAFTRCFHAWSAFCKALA
UniProt Q96ME1: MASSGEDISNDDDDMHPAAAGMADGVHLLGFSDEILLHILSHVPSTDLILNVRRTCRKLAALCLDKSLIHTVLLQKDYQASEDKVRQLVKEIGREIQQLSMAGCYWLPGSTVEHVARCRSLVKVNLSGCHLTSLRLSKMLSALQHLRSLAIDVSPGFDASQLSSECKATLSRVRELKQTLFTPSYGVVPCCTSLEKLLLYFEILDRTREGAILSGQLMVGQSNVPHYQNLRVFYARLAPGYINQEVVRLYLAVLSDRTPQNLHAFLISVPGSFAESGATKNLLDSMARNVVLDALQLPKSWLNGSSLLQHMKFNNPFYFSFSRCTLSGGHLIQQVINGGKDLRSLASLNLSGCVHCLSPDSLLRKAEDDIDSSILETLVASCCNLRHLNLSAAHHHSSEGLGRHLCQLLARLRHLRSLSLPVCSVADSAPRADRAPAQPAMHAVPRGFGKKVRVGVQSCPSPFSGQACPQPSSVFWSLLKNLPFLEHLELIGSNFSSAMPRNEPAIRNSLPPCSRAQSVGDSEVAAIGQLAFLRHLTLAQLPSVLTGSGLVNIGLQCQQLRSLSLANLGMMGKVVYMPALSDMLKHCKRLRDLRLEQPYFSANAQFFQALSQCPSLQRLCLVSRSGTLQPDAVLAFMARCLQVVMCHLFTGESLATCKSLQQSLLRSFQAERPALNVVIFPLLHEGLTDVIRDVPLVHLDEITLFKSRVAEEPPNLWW
UniProt Q96CP2: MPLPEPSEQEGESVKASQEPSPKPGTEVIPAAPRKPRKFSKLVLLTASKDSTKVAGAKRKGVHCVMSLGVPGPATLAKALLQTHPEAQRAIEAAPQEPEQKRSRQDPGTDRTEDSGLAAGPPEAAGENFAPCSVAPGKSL
UniProt P62942, whole entry, looked up: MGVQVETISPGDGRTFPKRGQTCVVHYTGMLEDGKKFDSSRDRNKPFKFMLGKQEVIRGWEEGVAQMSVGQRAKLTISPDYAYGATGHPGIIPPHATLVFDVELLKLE

Some of the results follow.

Compound in the test: CC1=C(C=C(C=C1)NC(=O)C2=CC(=CC=C2)C(C)(C)C#N)NC3=CC4=C(C=C3)N=CN(C4=O)C
The experiment in a line: log2 fold change, soluble protein after heating vs DMSO (PISA); higher = thermal stabilisation; K562 cells, 10 uM, 30 min; active = over 0.2 and 3.5 SD of the protein, either way, in both replicates (recomputed). An outline of the steps: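 Values are thermal stability changes relative to control samples and are taken from duplicates. They are stated as log2 fold changes. Before quantification by TMTpro 16plex LC-MS/MS with equalised channel sums, K562 cells at 2×10^6 cells/mL were treated with 10 μM compound for 30 min, heated in aliquots for 3 min across 48°C-58°C, pooled, extracted in PBS with 0.5% NP-40 at 4°C, and centrifuged at 21,000xg for 90 min to give the soluble supernatant.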
As to FDX1 (UniProt P10109), the log2 fold change is inactive: 0.101. Turning to FBXL12 (UniProt Q9NXK8), the log2 fold change was inactive: 0. In the case of FKBPL (UniProt Q9UIM3), the log2 fold change was inactive: 0.011. As for FCGR2C (UniProt P31995), the log2 fold change was inactive: 0.006. Take FANCB (UniProt Q8NB91): the log2 fold change was inactive: 0.024. The same measure for FIP1L1 (UniProt Q6UN15): inactive: -0.096; for FLVCR1 (UniProt Q9Y5Y0): inactive: 0.086. As for FAM49B (UniProt Q9NUQ9), the log2 fold change is inactive: 0.008.

Regarding FAM210A (UniProt Q96ND0), the log2 fold change was inactive: 0.054. The same measure for FBXO30 (UniProt Q8TB52): inactive: 0.007. In the case of FKBP2 (UniProt P26885), the log2 fold change is inactive: 0.02. Regarding FKBP15 (UniProt Q5T1M5), the log2 fold change was inactive: -0.075. As to FAR1 (UniProt Q8WVX9), the log2 fold change is inactive: -0.015. The same measure for FH (UniProt P07954): inactive: 0.025; for FLII (UniProt Q13045): inactive: 0.017. The same measure for FNBP4 isoform 2 (UniProt Q8N3X1): inactive: -0.046; for FAM98B (UniProt Q52LJ0): inactive: 0.062. As for FBXL20 (UniProt Q96IG2), the log2 fold change is inactive: -0.02. The same measure for FBXL18 isoform 4 (UniProt Q96ME1): inactive: 0.04. For FLYWCH2 (UniProt Q96CP2), the log2 fold change was inactive: -0.078.

As to FAM76B (UniProt Q5HYJ3), the log2 fold change was inactive: -0.044. With FASN (UniProt P49327), the log2 fold change was inactive: 0.022. Take FKBP1A (UniProt P62942): the log2 fold change is inactive: 0.026.
